Source: the supplement of paper PMC11732987, “Enantioselective OTUD7B fragment discovery through chemoproteomics screening and high-throughput optimisation” (Communications Chemistry, 2025)
Some of the results follow. The data scatter; read single values as rough.

Amino acid sequences for entries named in this document (tags omitted). A change or cut given only in a name is not applied to a line headed by its entry. Residues count along the entry.
UniProt Q99614: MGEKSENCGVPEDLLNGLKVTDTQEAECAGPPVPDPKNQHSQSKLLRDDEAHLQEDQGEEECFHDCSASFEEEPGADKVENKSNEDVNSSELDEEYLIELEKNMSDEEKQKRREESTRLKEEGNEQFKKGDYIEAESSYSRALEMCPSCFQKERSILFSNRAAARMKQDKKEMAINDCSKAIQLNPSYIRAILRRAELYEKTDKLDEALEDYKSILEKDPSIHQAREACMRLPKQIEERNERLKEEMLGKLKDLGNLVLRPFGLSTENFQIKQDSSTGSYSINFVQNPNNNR
UniProt Q8IWV8: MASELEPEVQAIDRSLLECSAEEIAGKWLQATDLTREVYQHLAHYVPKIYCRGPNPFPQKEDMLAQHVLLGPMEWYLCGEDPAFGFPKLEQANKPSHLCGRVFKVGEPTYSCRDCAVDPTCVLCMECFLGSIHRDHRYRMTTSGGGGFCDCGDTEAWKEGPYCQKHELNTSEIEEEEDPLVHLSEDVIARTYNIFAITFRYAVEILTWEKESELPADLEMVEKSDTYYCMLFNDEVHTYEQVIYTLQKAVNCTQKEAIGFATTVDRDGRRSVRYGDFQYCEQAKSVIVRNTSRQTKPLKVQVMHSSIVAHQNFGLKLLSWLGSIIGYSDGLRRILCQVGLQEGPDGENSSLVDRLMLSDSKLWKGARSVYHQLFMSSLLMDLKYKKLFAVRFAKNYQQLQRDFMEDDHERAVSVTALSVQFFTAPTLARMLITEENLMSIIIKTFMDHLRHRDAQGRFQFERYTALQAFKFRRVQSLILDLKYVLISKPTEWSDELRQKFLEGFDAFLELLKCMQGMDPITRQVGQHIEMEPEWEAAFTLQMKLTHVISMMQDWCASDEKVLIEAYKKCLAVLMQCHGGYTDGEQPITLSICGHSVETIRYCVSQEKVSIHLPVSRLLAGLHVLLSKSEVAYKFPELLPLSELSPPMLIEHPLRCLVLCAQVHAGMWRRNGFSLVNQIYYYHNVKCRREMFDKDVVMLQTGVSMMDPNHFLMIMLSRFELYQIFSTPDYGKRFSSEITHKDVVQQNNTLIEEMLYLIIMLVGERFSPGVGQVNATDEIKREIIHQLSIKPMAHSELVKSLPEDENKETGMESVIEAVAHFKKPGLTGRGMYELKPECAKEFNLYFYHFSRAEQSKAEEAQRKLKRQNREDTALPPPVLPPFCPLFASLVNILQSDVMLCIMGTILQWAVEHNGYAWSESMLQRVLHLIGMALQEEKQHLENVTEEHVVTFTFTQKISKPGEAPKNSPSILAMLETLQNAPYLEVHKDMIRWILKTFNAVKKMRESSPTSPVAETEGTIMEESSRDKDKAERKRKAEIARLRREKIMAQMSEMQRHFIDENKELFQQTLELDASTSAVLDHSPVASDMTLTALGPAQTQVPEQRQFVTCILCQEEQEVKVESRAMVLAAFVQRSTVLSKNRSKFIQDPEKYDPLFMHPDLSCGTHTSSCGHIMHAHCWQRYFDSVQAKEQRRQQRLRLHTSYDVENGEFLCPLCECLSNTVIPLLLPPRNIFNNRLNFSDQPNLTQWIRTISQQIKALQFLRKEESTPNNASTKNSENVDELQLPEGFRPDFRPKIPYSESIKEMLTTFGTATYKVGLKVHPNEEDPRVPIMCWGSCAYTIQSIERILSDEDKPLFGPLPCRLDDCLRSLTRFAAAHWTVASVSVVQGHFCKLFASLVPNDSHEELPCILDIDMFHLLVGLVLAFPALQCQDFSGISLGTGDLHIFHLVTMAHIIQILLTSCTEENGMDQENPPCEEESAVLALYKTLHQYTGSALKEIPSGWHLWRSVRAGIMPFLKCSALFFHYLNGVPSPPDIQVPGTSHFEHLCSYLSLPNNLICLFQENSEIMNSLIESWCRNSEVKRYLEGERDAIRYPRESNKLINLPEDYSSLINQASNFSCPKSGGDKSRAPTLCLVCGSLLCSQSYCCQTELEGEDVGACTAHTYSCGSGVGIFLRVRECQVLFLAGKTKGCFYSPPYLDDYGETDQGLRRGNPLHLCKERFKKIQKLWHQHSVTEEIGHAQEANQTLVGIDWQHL
UniProt P22314: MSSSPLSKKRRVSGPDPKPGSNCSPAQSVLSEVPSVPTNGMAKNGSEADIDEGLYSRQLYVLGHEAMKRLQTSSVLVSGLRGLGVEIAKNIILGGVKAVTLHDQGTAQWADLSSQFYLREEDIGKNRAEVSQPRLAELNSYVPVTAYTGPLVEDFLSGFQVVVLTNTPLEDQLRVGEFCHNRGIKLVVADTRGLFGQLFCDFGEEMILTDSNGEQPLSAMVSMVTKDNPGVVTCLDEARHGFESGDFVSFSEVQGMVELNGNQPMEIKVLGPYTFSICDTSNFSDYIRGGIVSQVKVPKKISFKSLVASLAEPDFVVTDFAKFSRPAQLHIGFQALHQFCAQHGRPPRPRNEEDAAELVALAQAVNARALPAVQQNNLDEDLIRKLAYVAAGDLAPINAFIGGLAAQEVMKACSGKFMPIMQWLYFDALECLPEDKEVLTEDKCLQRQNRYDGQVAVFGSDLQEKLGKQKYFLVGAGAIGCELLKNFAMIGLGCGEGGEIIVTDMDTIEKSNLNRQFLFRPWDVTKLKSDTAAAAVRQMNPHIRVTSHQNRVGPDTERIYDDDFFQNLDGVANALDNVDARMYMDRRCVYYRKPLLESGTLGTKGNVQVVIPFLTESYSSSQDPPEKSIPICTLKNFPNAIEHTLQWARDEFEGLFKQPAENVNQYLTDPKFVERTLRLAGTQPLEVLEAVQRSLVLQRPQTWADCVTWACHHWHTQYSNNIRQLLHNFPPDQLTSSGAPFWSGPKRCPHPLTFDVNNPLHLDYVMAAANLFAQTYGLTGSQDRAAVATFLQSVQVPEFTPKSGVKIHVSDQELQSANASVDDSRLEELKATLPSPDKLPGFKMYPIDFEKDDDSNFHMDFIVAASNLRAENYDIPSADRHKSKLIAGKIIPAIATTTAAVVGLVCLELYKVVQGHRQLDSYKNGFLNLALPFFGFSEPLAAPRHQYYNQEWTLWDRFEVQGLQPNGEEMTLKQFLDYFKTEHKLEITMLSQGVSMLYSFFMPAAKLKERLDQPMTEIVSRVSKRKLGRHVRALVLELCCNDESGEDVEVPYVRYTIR
UniProt O14562: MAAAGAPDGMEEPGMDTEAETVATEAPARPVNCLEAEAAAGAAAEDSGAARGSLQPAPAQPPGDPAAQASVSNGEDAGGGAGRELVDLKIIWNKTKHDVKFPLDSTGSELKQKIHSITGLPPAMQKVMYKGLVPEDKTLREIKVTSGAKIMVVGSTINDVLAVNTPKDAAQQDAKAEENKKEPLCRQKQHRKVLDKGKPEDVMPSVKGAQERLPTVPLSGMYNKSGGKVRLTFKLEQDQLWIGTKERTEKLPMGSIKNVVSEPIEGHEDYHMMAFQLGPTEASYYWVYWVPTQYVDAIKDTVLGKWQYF
UniProt Q8IWV7, 992-1016: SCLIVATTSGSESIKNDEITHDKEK
UniProt Q5TAX3: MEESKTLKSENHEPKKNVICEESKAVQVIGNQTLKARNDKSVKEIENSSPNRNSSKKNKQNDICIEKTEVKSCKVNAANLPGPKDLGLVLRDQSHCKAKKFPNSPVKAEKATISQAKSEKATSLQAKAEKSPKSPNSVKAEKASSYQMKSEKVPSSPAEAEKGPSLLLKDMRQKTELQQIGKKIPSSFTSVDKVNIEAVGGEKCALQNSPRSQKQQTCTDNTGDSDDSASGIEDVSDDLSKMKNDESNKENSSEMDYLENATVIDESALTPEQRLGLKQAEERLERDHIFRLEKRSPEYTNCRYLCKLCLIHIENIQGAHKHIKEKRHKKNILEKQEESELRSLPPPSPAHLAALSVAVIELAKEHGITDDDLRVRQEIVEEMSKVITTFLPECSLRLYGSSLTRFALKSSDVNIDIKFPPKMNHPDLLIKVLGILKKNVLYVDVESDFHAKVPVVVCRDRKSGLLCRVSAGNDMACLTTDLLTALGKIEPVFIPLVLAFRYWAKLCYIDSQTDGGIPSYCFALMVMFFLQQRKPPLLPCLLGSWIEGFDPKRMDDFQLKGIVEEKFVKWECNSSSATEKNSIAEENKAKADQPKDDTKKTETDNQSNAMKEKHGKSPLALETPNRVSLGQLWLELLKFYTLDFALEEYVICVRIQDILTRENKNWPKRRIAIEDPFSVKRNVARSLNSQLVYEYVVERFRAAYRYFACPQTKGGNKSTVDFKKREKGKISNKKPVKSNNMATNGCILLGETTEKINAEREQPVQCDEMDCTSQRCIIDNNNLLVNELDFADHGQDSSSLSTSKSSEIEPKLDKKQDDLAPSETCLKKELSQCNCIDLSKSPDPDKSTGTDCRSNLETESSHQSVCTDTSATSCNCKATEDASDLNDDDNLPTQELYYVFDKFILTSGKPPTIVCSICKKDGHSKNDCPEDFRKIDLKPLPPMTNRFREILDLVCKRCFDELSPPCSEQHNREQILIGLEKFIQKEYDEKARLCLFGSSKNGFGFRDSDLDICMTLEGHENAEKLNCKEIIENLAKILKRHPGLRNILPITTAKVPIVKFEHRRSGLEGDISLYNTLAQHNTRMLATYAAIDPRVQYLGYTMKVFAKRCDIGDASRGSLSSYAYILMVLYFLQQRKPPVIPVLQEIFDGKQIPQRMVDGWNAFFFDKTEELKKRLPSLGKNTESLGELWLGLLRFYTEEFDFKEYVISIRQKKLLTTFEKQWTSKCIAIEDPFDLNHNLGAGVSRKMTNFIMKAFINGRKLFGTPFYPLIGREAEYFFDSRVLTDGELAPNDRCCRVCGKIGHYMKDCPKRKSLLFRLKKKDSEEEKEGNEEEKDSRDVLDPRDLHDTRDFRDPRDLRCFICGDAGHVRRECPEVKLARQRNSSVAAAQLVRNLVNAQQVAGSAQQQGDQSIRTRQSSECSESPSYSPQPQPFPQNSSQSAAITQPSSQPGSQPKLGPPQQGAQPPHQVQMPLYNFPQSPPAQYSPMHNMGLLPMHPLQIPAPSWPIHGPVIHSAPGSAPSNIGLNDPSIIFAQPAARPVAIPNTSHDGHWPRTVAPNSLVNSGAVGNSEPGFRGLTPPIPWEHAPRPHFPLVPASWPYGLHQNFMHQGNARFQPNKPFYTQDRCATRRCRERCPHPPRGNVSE
UniProt Q5VYS8: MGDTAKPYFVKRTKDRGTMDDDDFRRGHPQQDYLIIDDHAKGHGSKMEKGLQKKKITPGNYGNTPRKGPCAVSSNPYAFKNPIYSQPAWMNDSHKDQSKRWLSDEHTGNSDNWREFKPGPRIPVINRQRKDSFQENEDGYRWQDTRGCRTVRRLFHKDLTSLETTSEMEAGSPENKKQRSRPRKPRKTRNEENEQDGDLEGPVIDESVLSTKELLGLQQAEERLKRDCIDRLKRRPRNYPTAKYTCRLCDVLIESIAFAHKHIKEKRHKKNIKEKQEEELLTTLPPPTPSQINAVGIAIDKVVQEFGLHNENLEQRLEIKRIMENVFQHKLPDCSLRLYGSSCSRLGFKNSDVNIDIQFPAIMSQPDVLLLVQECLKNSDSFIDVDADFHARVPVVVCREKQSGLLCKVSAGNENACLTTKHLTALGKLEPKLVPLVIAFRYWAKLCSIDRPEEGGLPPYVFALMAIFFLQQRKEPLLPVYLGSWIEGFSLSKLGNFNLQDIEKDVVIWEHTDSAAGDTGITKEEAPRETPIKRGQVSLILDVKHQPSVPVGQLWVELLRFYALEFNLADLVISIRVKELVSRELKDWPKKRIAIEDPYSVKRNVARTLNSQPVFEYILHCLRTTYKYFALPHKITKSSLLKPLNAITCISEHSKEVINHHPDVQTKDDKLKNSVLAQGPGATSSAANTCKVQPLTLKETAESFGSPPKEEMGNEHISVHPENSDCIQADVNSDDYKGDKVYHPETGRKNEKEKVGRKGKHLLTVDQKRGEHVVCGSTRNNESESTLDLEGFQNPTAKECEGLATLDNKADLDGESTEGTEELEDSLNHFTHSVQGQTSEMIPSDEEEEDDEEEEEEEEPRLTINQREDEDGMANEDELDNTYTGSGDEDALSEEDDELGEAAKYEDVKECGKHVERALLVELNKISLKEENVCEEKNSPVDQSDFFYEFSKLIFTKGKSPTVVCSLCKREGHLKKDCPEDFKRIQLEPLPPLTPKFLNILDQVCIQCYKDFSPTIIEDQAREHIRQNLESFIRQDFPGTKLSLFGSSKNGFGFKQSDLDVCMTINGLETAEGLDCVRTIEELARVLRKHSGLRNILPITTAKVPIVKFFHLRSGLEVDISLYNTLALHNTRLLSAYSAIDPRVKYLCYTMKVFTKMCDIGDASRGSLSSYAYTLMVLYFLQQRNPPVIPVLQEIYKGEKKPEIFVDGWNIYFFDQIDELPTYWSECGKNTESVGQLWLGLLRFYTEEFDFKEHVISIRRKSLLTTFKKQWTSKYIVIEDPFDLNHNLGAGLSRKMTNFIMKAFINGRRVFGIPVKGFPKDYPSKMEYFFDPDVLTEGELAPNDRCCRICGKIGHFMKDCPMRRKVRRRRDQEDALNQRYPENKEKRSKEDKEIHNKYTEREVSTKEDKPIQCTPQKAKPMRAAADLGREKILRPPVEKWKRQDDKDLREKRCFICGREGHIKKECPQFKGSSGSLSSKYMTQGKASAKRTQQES

compound: ClCC(=O)N[C@@H]1CCCc2ccccc12; test: log2 mean competition ratio of IA-DTB cysteine labelling (DMSO/compound) (log2 ratio); higher = stronger cysteine engagement by compound; settings: 50 µM; treatment time: 4 h; cell line lysate: HEK293T
Protocol: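 IA-DTB competitive cysteine chemoproteomics in HEK293T RIPA lysate. Lysates were treated with compound 29 or 30 at 50 or 200 µM for 4 h, then IA-DTB (500 µM, 1 h), trypsin-digested, NeutrAvidin-enriched and analysed by diaPASEF. Competition ratio = intensity DMSO / intensity compound (n=4 treated, n=64 DMSO); binding: mean log2 CR ≥ 1 and p ≤ 0.05 plus QC filters. Target is the cysteine site.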

| Target | log2 mean competition ratio |
| --- | --- |
| TTC1 C8 (UniProt Q99614) | -0.103 |
| UBR2 C1360 (UniProt Q8IWV8) | 0.0105 |
| UBE2Z C100 (UniProt Q9H832) | -0.0257 |
| TRRAP C3347 (UniProt Q9Y4A5) | 0.347 |
| UBA1 C179 (UniProt P22314) | -0.16 |
| UBE4B C581 (UniProt O95155) | 0.0369 |
| UBA2 C30 | 0.344 |
| TTK C295 (UniProt P33981) | 0.0306 |
| TTC37 C1422 (UniProt Q6PGP7) | -0.221 |
| UBFD1 C185 (UniProt O14562) | -0.141 |
| UBR1 C993 (UniProt Q8IWV7) | -0.0587 |
| UBA1 C234 (UniProt P22314) | -0.204 |
| UBR2 C602 (UniProt Q8IWV8) | 0.0707 |
| TUT4 C64 (UniProt Q5TAX3) | -0.178 |
| UBR4 C122 (UniProt Q5T4S7) | 0.135 |
| TXNDC11 C815 (UniProt Q6PKC3) | 0.00262 |
| TUBGCP2 C737 (UniProt Q9BSJ2) | 0.36 |
| TUT4 C572 (UniProt Q5TAX3) | 0.0578 |
| TXNIP C49 (UniProt Q9H3M7) | 0.0492 |
| TUT7 C1413 (UniProt Q5VYS8) | -0.181 |

same assay, conditions: 200 µM; treatment time: 4 h; cell line lysate: HEK293T

| Target | log2 mean competition ratio |
| --- | --- |
| TTC1 C8 (UniProt Q99614) | -0.357 |
| UBR2 C1360 (UniProt Q8IWV8) | 0.163 |
| UBE2Z C100 (UniProt Q9H832) | -0.362 |
| TRRAP C3347 (UniProt Q9Y4A5) | 0.0404 |
| UBA1 C179 (UniProt P22314) | -0.119 |
| UBE4B C581 (UniProt O95155) | -0.278 |
| UBA2 C30 | 0.447 |
| TTK C295 (UniProt P33981) | -0.0135 |
| TTC37 C1422 (UniProt Q6PGP7) | -0.0487 |
| UBFD1 C185 (UniProt O14562) | 0.191 |
| UBR1 C993 (UniProt Q8IWV7) | -0.151 |
| UBA1 C234 (UniProt P22314) | 0.29 |
| UBR2 C602 (UniProt Q8IWV8) | -0.191 |
| TUT4 C64 (UniProt Q5TAX3) | 0.09 |
| UBR4 C122 (UniProt Q5T4S7) | -0.254 |
| TXNDC11 C815 (UniProt Q6PKC3) | -0.0321 |
| TUBGCP2 C737 (UniProt Q9BSJ2) | -0.0673 |
| TUT4 C572 (UniProt Q5TAX3) | 0.00842 |
| TXNIP C49 (UniProt Q9H3M7) | -0.122 |
| TUT7 C1413 (UniProt Q5VYS8) | -0.0883 |
